In the supplement of paper PMC4683952:
This is one part of the list. Cut-off read from the data, not from the text of the source: active = 2 or more and inactive = the rest. This data set is noisy: repeats of one test often differ as much as different tests do.

tested on: Lgr5 (MarsCy1-Lgr5-EGFP, U2OS); test: cell-surface Lgr5 expression (SCi1 fluorescence, background-subtracted) relative to WT DMSO (fold of DMSO control); higher = more Lgr5 at the plasma membrane; settings: U2OS MarsCy1-Lgr5-EGFP stable; treatment time: overnight; library: ActiProbe-5K (TimTec); 25 µM

Structure (SMILES)	cell-surface Lgr5 expression
Cc1cn2c(-c3ccccc3F)nc(=S)nc2s1	inactive: 0.871
Sc1nnc(-c2ccncc2)n1/N=C/C=C\c1ccco1	inactive: 1.05
Nc1nc(-c2sc3nc4c(cc3c2N)CCC4)nc(N2CCOCC2)n1	inactive: 1.14
CC(=O)C1C(=O)c2ccc(Br)cc2C1=O (centres undefined)	inactive: 1.07
CCC1CCc2c(sc(N)c2C#N)C1 (centres undefined)	inactive: 1.53
Nc1ccc2c(c1)nc1ccccn12	inactive: 1.48
COc1cccc(OC)c1-c1noc(CSc2nc3ccccc3o2)n1	inactive: 1.15
Cc1cc2c3c(c1)C(C)CC(C)(C)N3C(=O)C2=O (centres undefined)	inactive: 1.29
O=S(=O)(Nc1nccs1)c1ccc(Br)cc1	inactive: 1
COc1cc(-c2nnc(S)n2-c2ccc3c(c2)OCO3)cc(OC)c1OC	inactive: 1.49
N=C(N)Nc1nc2ccccc2o1	inactive: 1.11
NC(=O)c1c(F)c(F)c(N)c(F)c1F	inactive: 1.04
S=c1[nH]nc(-c2cccc(Br)c2)n1-c1ccccc1	inactive: 1.16
CCCCC(CC)CN1C(=O)/C(=C/c2c(NCc3ccco3)nc3ccccn3c2=O)SC1=S (centres undefined)	inactive: 1.12
O=S(=O)(Nc1nc2ccccc2s1)c1ccc(F)cc1	inactive: 1.09
Fc1cccc(Cl)c1-c1nnc2ccc3ccccc3n12	inactive: 1.1
C=CCSc1nc2c(c(=O)n1C1CCCCC1)C1(CCCCC1)Cc1ccccc1-2	inactive: 1.11
CC1(C)OC(=O)N2CCn3c(cc4ccccc43)C21C (centres undefined)	inactive: 1.32
N#CC1=C2C=CC(O)=CC2OC=C1N (centres undefined)	inactive: 1.21
CC1CCCN(c2nc3ccccn3c(=O)c2C=O)C1 (centres undefined)	inactive: 1.22
CC(=O)c1sc(N)c(C#N)c1C	inactive: 1.12
Clc1ccc(CNn2cnnc2)cc1Cl	inactive: 1.23
Nc1[n+]([O-])c(N)[n+]([O-])c(N)[n+]1[O-]	inactive: 1.35

Given with each value named: four of the compounds above.
CC1(C)OC(=O)N2CCn3c(cc4ccccc43)C21C (centres undefined)
  cell-surface Lgr5 expression: inactive: 1.32
N#CC1=C2C=CC(O)=CC2OC=C1N (centres undefined)
  cell-surface Lgr5 expression: inactive: 1.21
CC1CCCN(c2nc3ccccn3c(=O)c2C=O)C1 (centres undefined)
  cell-surface Lgr5 expression: inactive: 1.22
CC(=O)c1sc(N)c(C#N)c1C
  cell-surface Lgr5 expression: inactive: 1.12

Additional results follow:

Structure (SMILES)	cell-surface Lgr5 expression
C1=CC2CC1CC21COC(c2ccc3oc4ccccc4c3c2)OC1 (centres undefined)	inactive: 1.06
O=C(N/N=C\c1cccs1)c1cnccn1	inactive: 1.38
O=C1C2=CNc3ccccc3NC2Oc2ccccc21 (centres undefined)	inactive: 1.35
C=CCOc1ccc2ccc(=O)oc2c1	inactive: 1.07
Cc1ccc(C(=O)CSc2nnc(-c3ccco3)o2)o1	inactive: 0.917
CC(=O)CC[C@H]1[C@H](C#N)[C@H](C(C)C)CC[C@@]1(C)OC(C)=O	inactive: 1.49
O=c1nc2oc3ccccc3cc-2c2ccccc12	active: 2.15
Cn1c(=O)c(C2=NNC(=O)/C2=C/c2c(O)c3cccnc3[nH]c2=O)c(O)c2ccccc21	inactive: 1.19
COc1cc(N2C(=O)C3C4C=CC(C4)C3C2=O)nc(OC)n1 (centres undefined)	inactive: 1.2
N#Cc1cnn2cc(-c3[nH]ncc3[N+](=O)[O-])cnc12	inactive: 1.23
O=[N+]([O-])c1ccc(CS(=O)(=O)[O-])cc1.[Na+]	inactive: 1.15
C#CC1(NC(C)=O)CCCCC1	inactive: 1.19
O=[N+]([O-])c1cnn(-c2cn[nH]c2)c1	inactive: 1.42
O=C(CCC1CCCCC1)N1CCN(C(=O)C23CC4CC(CC(C4)C2)C3)CC1	inactive: 1.07
N#CC1=C(N)Oc2c(oc(CO)cc2=O)C1c1cccs1 (centres undefined)	inactive: 0.821
COc1c(F)cc(Br)cc1[N+](=O)[O-]	inactive: 1.12
Cc1nn(C)c2[nH]c(=O)cc(C(F)(F)F)c12	inactive: 1.07
c1ccc(-n2nnnc2-n2ccnc2)cc1	inactive: 1.15
CCOC(=O)C1=C(C)OC(N)=C(C#N)[C@@H]1c1ccccc1[N+](=O)[O-]	inactive: 0.92
CS(=O)(=O)N1CCc2cc(S(=O)(=O)Nc3ccc4oc5c(c4c3)CCCC5)ccc21	inactive: 1.29
C1(/C(CC(CC1=O)(C)C)=O)=C(/NCC1OCCC1)C (centres undefined)	inactive: 1.11
C(=C/c1ccccc1)/C=N/Nc1nnn[nH]1	inactive: 1.3
Cn1ccnc1C(O)c1cccs1 (centres undefined)	inactive: 1.03

Structure (SMILES)	cell-surface Lgr5 expression
N/C(=N/O)C1CCCc2c1[nH]c1ccc(Br)cc21 (centres undefined)	inactive: 1.22
CN1CCN(c2nc(N(c3ccccc3)c3ccccc3)nc(-n3ccnc3)n2)CC1	inactive: 1.09
Nc1nonc1-c1noc(NCc2cccs2)n1	inactive: 1.08
Cc1cc(C)n2nnnc2c1C#N	inactive: 1
Cc1sc2[nH]c(=S)n(C)c(=O)c2c1C	inactive: 1.28
Cc1cc(C)n(CC(C)O)c(=O)c1C#N (centres undefined)	inactive: 1.13
Cc1oc(C23CC4CC(CC(C4)C2)C3)cc1C(=O)[O-]	inactive: 0.973
C=C1OC(n2cc(C)c(=O)[nH]c2=O)CC1O (centres undefined)	inactive: 1.02
COC(=O)Oc1nsnc1N1CCOCC1	inactive: 1.29
CC1CNC(C)(C)C(O)C1 (centres undefined)	inactive: 1.07
CC1(C)C2CCC1(CS(=O)(=O)N1CCCC1C(=O)O)C(=O)C2 (centres undefined)	inactive: 0.981
O=S(=O)(NCc1ccc2c(c1)OCO2)c1ccc(F)cc1	inactive: 1.34
O/N=C(\c1ccccc1)C(O)c1ccccc1 (centres undefined)	inactive: 1.2
Cc1ccc(-c2csc(=[NH2+])[nH]2)cc1.[Br-]	inactive: 1.06
CCn1c(S)nc(C(N)=O)c1N	inactive: 1.32
COCCCNC(=O)N1CCOCC1	inactive: 1.15
CN(C)CCC(=O)c1ccco1.Cl	inactive: 1.71
N=c1nc2n(c(=N)[nH]1)NC(c1ccc(F)cc1)=CS2	inactive: 0.713
Cc1ccc(C2=Nn3c(nnc3C(F)(F)F)SC2)cc1.Cl	inactive: 0.867
CSc1nc2nc(C)cc(O)n2n1	inactive: 1.25
C=CS(=O)(=O)c1ccc(OC)c(N)c1	inactive: 1.25
CCn1ncc(CN2CCN(C(=O)Cn3nc(C(F)(F)F)c(Cl)c3C3CC3)CC2)c1C	inactive: 1.1
Cc1ccc2ccccc2c1C[N+](C)(C)CC#Cc1ccccc1.[Br-]	inactive: 1.34
